{"source": "PubChem BioAssay AID662", "about": "(National Center for Advancing Translational Sciences (NCATS), 2007)", "note": "Some of the results follow. The main result of the screen is listed elsewhere. These columns were measured beside it and carry no call. Compounds called inactive in the main read-out are mostly missing here. The note in brackets gives the kind of curve behind each potency; many fits are weak."}
{"experiment": "Cell signaling CRE-BLA (Fsk stim)", "settings": "CHO CRE-bla reporter (cAMP response element driving beta-lactamase), forskolin EC10, beta-lactamase ratio; measured here: 460 nm blue channel", "method_in_brief": "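Modulation of forskolin signalling: compounds in titration series added with EC10 NKH 477 to CHO cells carrying a CRE-driven beta-lactamase reporter, 3 h, 37C. CCF4 FRET ratio (460/530 nm, ex 405 nm) gives %activity and AC50.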"}
{"molecule": "COc1cccc(Nc2ncc3nc(-c4ccccc4)c(=O)n(C)c3n2)c1", "AC50": "12.6 µM [rising, partial curve]"}
{"molecule": "CCOc1ccccc1C(=O)Nc1ccc(S(=O)(=O)N2CCOCC2)cc1", "AC50": "6.31 µM [rising, partial curve]"}
{"molecule": "O=C(C1CC1)N1CCc2cc(S(=O)(=O)N3CCOCC3)ccc21", "AC50": "12.6 µM [rising, single point]"}
{"molecule": "Cc1noc(/C=C/c2ccco2)c1S(=O)(=O)N1CCC(C(=O)N2c3ccccc3CC2C)CC1", "note": "(configuration not stated)", "AC50": "12.6 µM [falling, single point]"}
{"molecule": "COc1cc(-c2c(C#N)c(=O)[nH]c3c2c(C)nn3-c2ccccc2)ccc1O", "AC50": "10 µM [rising, partial curve]"}
{"molecule": "COC(=O)CC1C(=O)NCCN1C(=O)CSc1nnc(Nc2ccc(OC)cc2)s1", "note": "(configuration not stated)", "AC50": "0.1 µM [falling, full curve, poor fit]"}
{"molecule": "CCCCC/C=C\\C[C@H](O)/C=C\\c1cccc(C[C@H](O)CCCCO)n1", "AC50": "15.8 µM [falling, partial curve]"}
{"molecule": "COc1ccc(-n2c(=O)c(-c3ccccc3)nc3cnc(N4CCN(C)CC4)nc32)cc1", "AC50": "10 µM [rising, partial curve]"}
{"molecule": "CCNC(=O)CC1C(=O)N(c2ccc(F)cc2)C(=O)N1CCc1ccc(OC)cc1", "note": "(configuration not stated)", "AC50": "0.0251 µM [falling, full curve, poor fit]"}
{"molecule": "O=C(NC1CCCC1)c1cc(-c2cccs2)on1", "AC50": "10 µM [rising, partial curve]"}
{"molecule": "CCCn1c(-c2ccc(OC)cc2)nc2nc3ccccc3nc21", "AC50": "10 µM [rising, partial curve]"}
{"molecule": "CCOC(=O)N1CCC(NC(=O)c2cc(S(=O)(=O)N3CCc4ccccc43)cn2C)CC1", "AC50": "0.00316 µM [falling, full curve, poor fit]"}
{"molecule": "O=C(Cc1ccc(F)cc1)N(c1ccccc1)C1C=CS(=O)(=O)C1", "note": "(configuration not stated)", "AC50": "3.98 µM [falling, partial curve]"}
{"molecule": "O=C(CN1C(=O)C2C3C=CC(C3)C2C1=O)Nc1cccc2c1CCCC2", "note": "(configuration not stated)", "AC50": "1.58 µM [falling, partial curve]"}
{"molecule": "Cc1ccc(-c2nnc(CSc3nnc(C)s3)o2)cc1", "AC50": "0.126 µM [falling, single point]"}
{"molecule": "CSc1ccc(S(=O)(=O)N2CCN(Cc3ccc4c(c3)OCO4)CC2)cc1", "AC50": "12.6 µM [falling, partial curve]"}
{"molecule": "O=C(c1cc2c(=O)oc3ccccc3c2s1)N1CCOCC1", "AC50": "0.501 µM [rising, single point]"}
{"molecule": "COc1ccccc1OCc1ccc(C(=O)N2CCN(C(=O)c3ccco3)CC2)cc1", "AC50": "5.01 µM [rising, single point]"}
{"molecule": "CCCCc1n[nH]c2c1C(=O)CC(C)(C)C2", "AC50": "3.16 µM [falling, single point]"}
{"molecule": "O=C(c1cc(-c2cccs2)on1)N1CCCCC1", "AC50": "0.0501 µM [rising, partial curve, poor fit]"}
{"molecule": "Cc1ccccc1NC(=O)c1c(O)c2cccc3c2n(c1=O)CCC3", "AC50": "20 µM [falling, single point]"}
{"molecule": "O=C(NCc1ccc2c(c1)OCO2)C(c1ccco1)N(C(=O)c1csnn1)c1ccccc1", "note": "(configuration not stated)", "AC50": "5.01 µM [rising, single point]"}
{"molecule": "COc1ccc2ccccc2c1C1CC(=O)N2CN(C)CSC2=C1C#N", "note": "(configuration not stated)", "AC50": "3.16 µM [falling, partial curve]"}
{"molecule": "CCOC(=O)C1CCN(C(=O)c2cc3c(-c4ccc(OC)c(OC)c4)nn(C)c3s2)CC1", "AC50": "2 µM [rising, full curve]"}
{"molecule": "Cc1cc(C(=O)Nc2ccc3c(c2)OCO3)cs1", "AC50": "0.00398 µM [falling, full curve, poor fit]"}
{"molecule": "O=c1n(Cc2ccccc2)c2cc(Cl)cnc2n1Cc1ccccc1", "AC50": "2.51 µM [rising, single point]"}
{"molecule": "O=C(CCc1c[nH]c2ccccc12)NCC1CCCO1", "note": "(configuration not stated)", "AC50": "3.16 µM [falling, single point]"}
{"molecule": "Cc1ccc2oc(=O)c3cc(C(=O)NCc4ccco4)sc3c2c1", "AC50": "2 µM [rising, full curve]"}
{"molecule": "CSc1nc2c(c(-c3ccc(O)cc3)c1C#N)CCC2", "AC50": "12.6 µM [rising, partial curve]"}
{"molecule": "CCN(CC)c1ccc(NC(=O)c2cncc(Br)c2)cc1", "AC50": "15.8 µM [falling, partial curve]"}
{"molecule": "CCOC(=O)c1oc2ccccc2c1NC(=O)Cc1cccs1", "AC50": "12.6 µM [falling, partial curve, poor fit]"}
{"molecule": "COc1ccc(Oc2ncc3nc(-c4cccs4)c(=O)n(CCC#N)c3n2)cc1", "AC50": "12.6 µM [rising, partial curve]"}
{"molecule": "Cc1cc(NCCN2CCOCC2)n2nc(C)c(-c3ccccc3)c2n1", "AC50": "15.8 µM [rising, partial curve]"}
{"molecule": "O=c1c(-c2cccs2)nc2cncnc2n1Cc1ccccc1", "AC50": "6.31 µM [rising, partial curve]"}
{"molecule": "O=C(CC1COc2ccccc2O1)NC1CCCCC1", "note": "(configuration not stated)", "AC50": "0.00631 µM [falling, full curve]"}
{"molecule": "COC(=O)CN(c1ccc(C)c(Cl)c1)S(C)(=O)=O", "AC50": "0.316 µM [rising, partial curve]"}
{"molecule": "CCSc1nnc(-c2ccc(Cl)cc2Cl)o1", "AC50": "2.51 µM [falling, partial curve, poor fit]"}
{"molecule": "Cc1onc(-c2ccccc2)c1C(=O)Nc1sc2c(c1C#N)CCC(C)C2", "note": "(configuration not stated)", "AC50": "2.51 µM [rising, full curve]"}
{"molecule": "O=C(CC1C(=O)NCCN1C(=O)Nc1ccccc1)Nc1ccc2c(c1)OCCO2", "note": "(configuration not stated)", "AC50": "3.16 µM [falling, single point]"}
{"molecule": "CCOC(=O)c1ccc2c(c1)nc(SCC(=O)c1ccco1)n2CC", "AC50": "6.31 µM [rising, single point]"}
{"molecule": "CC1CN(C(=O)c2cnn3c(C(F)F)cc(-c4ccccc4)nc23)CC(C)O1", "note": "(configuration not stated)", "AC50": "25.1 µM [rising, single point]"}
{"molecule": "CCOC(=O)C1CCN(S(=O)(=O)c2cccc(-c3cn4ccccc4n3)c2)CC1", "AC50": "12.6 µM [rising, partial curve]"}
{"molecule": "COc1ccc(-c2ccc(-c3noc(C(C)C)n3)c(OC)n2)cc1", "AC50": "7.94 µM [rising, partial curve]"}
{"molecule": "O=c1ccc2c(OCCCCc3ccccc3)c3ccoc3cc2o1", "AC50": "15.8 µM [rising, partial curve]"}
{"molecule": "CCOc1cc(C(=O)NCC(C)CN(C)C)cc(OCC)c1OCC", "note": "(configuration not stated)", "AC50": "0.0158 µM [falling, full curve, poor fit]"}
{"molecule": "COc1ccc(OC)c(-n2c(N)c(C(=O)NCC3CCCO3)c3nc4ccccc4nc32)c1", "note": "(configuration not stated)", "AC50": "12.6 µM [rising, partial curve]"}
{"molecule": "COCCn1c(=O)c(-c2ccc(Cl)cc2)nc2cnc(N3CCOCC3)nc21", "AC50": "3.16 µM [rising, partial curve]"}
{"molecule": "CCOC(=O)c1c(NC(=O)c2ccco2)sc2c1CCCC2", "AC50": "10 µM [rising, partial curve]"}
{"molecule": "Cc1ccc2nc(-c3cccc(NC(=O)c4ccc5c(c4)OCCO5)c3)oc2c1", "AC50": "7.94 µM [falling, partial curve]"}
{"molecule": "CC[C@]1(O)C[C@H]2CN(CCc3c([nH]c4ccccc34)[C@](C(=O)OC)(c3cc4c(cc3OC)N(C)[C@@H]3[C@](O)(C(=O)OC)[C@H](OC(C)=O)[C@]5(CC)C=CCN6CC[C@]43[C@@H]65)C2)C1", "AC50": "0.501 µM [rising, full curve]"}
{"molecule": "C=CCn1c(O)c(C(CC)=NCc2cccnc2)c(=O)[nH]c1=O", "AC50": "15.8 µM [rising, partial curve]"}
{"molecule": "CCOC(=O)CN1C(=O)C(CC)Oc2ccc(Cl)cc21", "note": "(configuration not stated)", "AC50": "12.6 µM [rising, single point]"}
{"molecule": "Cn1cc(-c2nc3cncnc3n(C3CC3)c2=O)c2ccccc21", "AC50": "12.6 µM [rising, partial curve]"}
{"molecule": "C=CCNc1oc(-c2ccc(OCC)cc2)nc1C#N", "AC50": "12.6 µM [rising, partial curve]"}
{"molecule": "Cc1csc(N(C(=O)c2cccc(S(=O)(=O)N(C)C)c2)c2ccccc2)n1", "AC50": "10 µM [rising, partial curve]"}
{"molecule": "O=C(Cc1cccs1)N1CCC(c2nc3c(nnn3Cc3ccccc3Cl)c(=O)[nH]2)CC1", "AC50": "12.6 µM [rising, single point]"}
{"molecule": "CSc1nc2sc3c(c2c(=O)n1C)CCC(C)C3", "note": "(configuration not stated)", "AC50": "0.398 µM [rising, partial curve]"}
{"molecule": "CCCCOc1ccc(C(=O)O)cc1", "AC50": "0.126 µM [falling, single point]"}
{"molecule": "O=C(c1cc2c(s1)CCCCC2)N1CCN(c2ncccn2)CC1", "AC50": "10 µM [rising, partial curve]"}
{"molecule": "Cc1cc(NC(=O)c2cc3n(n2)C(C(F)(F)F)CC(c2ccco2)N3)n(-c2ccccc2)n1", "note": "(configuration not stated)", "AC50": "10 µM [rising, single point]"}
{"molecule": "Cc1ccc(C2CC(C(F)(F)F)n3ncc(C(=O)NCc4ccco4)c3N2)cc1", "note": "(configuration not stated)", "AC50": "12.6 µM [falling, single point]"}
{"molecule": "O=C(O)C1=CCNCC1", "AC50": "31.6 µM [falling, single point]"}
{"molecule": "COCCCn1c2nc3ccccc3nc2c2c(=O)n(Cc3ccc(Cl)cc3)c(C)nc21", "AC50": "0.501 µM [rising, full curve, poor fit]"}
{"molecule": "COC(=O)C1CCN(C(=O)CSc2nnc(-c3ccncc3)o2)CC1", "AC50": "0.00316 µM [falling, full curve, poor fit]"}
{"molecule": "Cc1nc(NC(C)c2ccccc2)c2oc3ccccc3c2n1", "note": "(configuration not stated)", "AC50": "12.6 µM [rising, single point]"}
{"molecule": "Cc1ccc(Cn2c3ccccc3c3cn[nH]c(=O)c32)cc1", "AC50": "1.58 µM [rising, full curve, poor fit]"}
{"molecule": "CCCn1c(C)nc2c(c1=O)c1nc3ccccc3nc1n2CCc1ccccc1", "AC50": "10 µM [rising, partial curve]"}
